Taken from: PubChem BioAssay AID1508597 (Cure First, 2020)
Shown is a random part of the about 2,100 reagents, under one of the conditions tested. 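Calls flag viability under 80% in either arm, not effects specific to rucaparib; the reference for percent is not stated.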 Some reagents were tested in more than one well and are listed for each. The record does not give: the 100% reference.

- Test: 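Knock-downs altering ovarian cancer cell survival with or without PARP inhibitor rucaparib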 (primary screen)
- Cell system: human ovarian carcinoma lines grown from tumours: OCI-P5x (papillary serous) and OCI-C5x (clear cell)
- Knock-down reagent: siRNA pool against human genes, 1.25 pmol siRNA per well
- Time to read-out: 72 h or 96 h, depending on the cell culture
- Challenge: rucaparib 20 µM (about IC30) or vehicle, present until read-out
- Rucaparib or vehicle: Rucaparib
- Cell line: OCI-P5x (serous)
- Read-out: 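Luminescent ATP-based viability assay read 72 or 96 h after transfection, depending on culture, given as normalised percent viability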
- Reading the numbers: viability, normalised: higher = more viable cells remaining
- Hit rule: 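a well counts as a hit if its normalised viability is under 80 percent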
- Meaning of the calls: active = viability under 80%; inactive = viability 80% or more

The opening 2 records as a preview:
gene | technical replicate | viability, normalised (%) | call
PHKG2 | 1 | 85.6 | inactive
PHKG2 | 2 | 81.5 | inactive

Main list, from the start:
gene | technical replicate | viability, normalised (%) | call
PHKG2 | 1 | 85.6 | inactive
PHKG2 | 2 | 81.5 | inactive
PHKG2 | 3 | 84.9 | inactive
SETDB2 | 1 | 41.8 | active
SETDB2 | 2 | 40.3 | active
SETDB2 | 3 | 44.6 | active
DDX3X | 1 | 76.7 | active
DDX3X | 1 | 53.7 | active
DDX3X | 2 | 68.5 | active
DDX3X | 2 | 49.1 | active
DDX3X | 3 | 55.7 | active
DDX3X | 3 | 68.3 | active
SMARCC2 | 1 | 45.4 | active
SMARCC2 | 2 | 51.9 | active
SMARCC2 | 3 | 49 | active
PRPS1L1 | 1 | 88.8 | inactive
PRPS1L1 | 2 | 78 | active
PRPS1L1 | 3 | 76.1 | active
PTEN | 1 | 53.1 | active
PTEN | 2 | 75.8 | active
PTEN | 3 | 75.6 | active
MASTL | 1 | 91 | inactive
MASTL | 2 | 85 | inactive
MASTL | 3 | 48.5 | active
FANCI | 1 | 57.7 | active
FANCI | 2 | 69.8 | active
FANCI | 3 | 59.2 | active
PRKAG3 | 1 | 91.6 | inactive
PRKAG3 | 2 | 96.1 | inactive
PRKAG3 | 3 | 95.9 | inactive
PLCD1 | 1 | 55 | active
PLCD1 | 2 | 53.1 | active
PLCD1 | 3 | 56.7 | active
SAFB | 1 | 45.7 | active
SAFB | 2 | 45.1 | active
SAFB | 3 | 49.6 | active
BAZ2B | 1 | 70 | active
BAZ2B | 2 | 66.6 | active
BAZ2B | 3 | 63.1 | active
